Some results were stated once for a whole list of compounds, not compound by compound. At least one compound was matched to its structure with a doubt left.
Target: T1, COX-2 (Mus musculus, UniProt Q05769)
T1 construct: host or cells: RAW 264.7 cells, pre-treated with aspirin, then induced with interferon and LPS
T1 sequence (Q05769 18-604): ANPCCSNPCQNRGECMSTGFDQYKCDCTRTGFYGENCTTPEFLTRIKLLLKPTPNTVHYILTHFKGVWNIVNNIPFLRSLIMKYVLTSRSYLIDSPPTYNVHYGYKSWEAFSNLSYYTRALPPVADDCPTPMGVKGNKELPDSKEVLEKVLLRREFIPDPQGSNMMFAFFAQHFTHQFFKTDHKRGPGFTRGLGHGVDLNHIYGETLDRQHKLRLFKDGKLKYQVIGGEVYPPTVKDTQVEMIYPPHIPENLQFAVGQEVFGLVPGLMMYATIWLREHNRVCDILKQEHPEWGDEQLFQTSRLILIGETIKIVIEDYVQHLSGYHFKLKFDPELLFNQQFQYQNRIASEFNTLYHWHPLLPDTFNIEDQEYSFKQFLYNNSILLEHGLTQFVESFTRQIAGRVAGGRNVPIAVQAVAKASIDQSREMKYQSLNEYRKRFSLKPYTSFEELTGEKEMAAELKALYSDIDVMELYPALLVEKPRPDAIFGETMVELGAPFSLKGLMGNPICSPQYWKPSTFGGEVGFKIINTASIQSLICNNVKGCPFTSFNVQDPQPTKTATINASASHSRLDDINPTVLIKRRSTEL
Experiment: Assay for the COX-2 inhibitory activity using Raw 264.7 cell line (PGE2 inhibition)
Assay type: cell-based
Conditions: COX-2 at 30 nM versus COX-1 at 1 μM; compared with reference Valdecoxib
Procedure: Each well was treated with 250 μM of aspirin and incubated at 37° C. for 2 hours. After the culture media were replaced with new culture media, the new culture media were treated with a test compound (30 nM) and incubated for 30 minutes. Then, each well was treated with interferon ? (100 units/ml) and lipopolysaccharide (LPS, 100 ng/ml) and incubated for 18 hours. The culture media were transferred to other test tubes. The concentration of PGE2 was quantified by means of the EIA kit (Cayman Chemicals).
The percentages of the COX inhibition were calculated according to the following equation: % Inhibition=(concentration of PGE2 in test compound-untreated sample−concentration of PGE2 in test compound-treated sample)/(concentration of PGE2 in test compound-untreated sample)×100

Question: How did the “inhibition (%) ratios of COX-2 to COX-1” value turn out when `CCOc1ccc(-c2c(-c3ccc(S(C)(=O)=O)cc3)ssc2=S)cc1` [Example 39, 4-(4-ethoxyphenyl)-5-(4-methanesulfonylphenyl)-[1,2]dithiol-3-thione] was run?
Answer: The value was “significantly higher than that in the reference, Valdecoxib”.

Question: For `CS(=O)(=O)c1ccc(-c2ssc(=S)c2-c2ccc(Br)cc2)cc1` [Example 40, 4-(4-bromophenyl)-5-(4-methanesulfonylphenyl)-[1,2]dithiol-3-thione], which “inhibition (%) ratios of COX-2 to COX-1” value is on record?
Answer: The value was “significantly higher than that in the reference, Valdecoxib”.

Question: How did the “inhibition (%) ratios of COX-2 to COX-1” value turn out when `CS(=O)(=O)c1ccc(-c2ssc(=S)c2-c2ccccc2)cc1` [Example 42, 5-(4-methanesulfonylphenyl)-4-phenyl-[1,2]dithiol-3-thione] was run?
Answer: Its value is “significantly higher than that in the reference, Valdecoxib”.

Question: How did the “inhibition (%) ratios of COX-2 to COX-1” value turn out when `COc1ccc(-c2c(-c3ccc(S(C)(=O)=O)cc3)ssc2=S)cc1` [Example 43, 5-(4-methanesulfonylphenyl)-4-(4-methoxyphenyl)-[1,2]dithiol-3-thione] was run?
Answer: The value was “significantly higher than that in the reference, Valdecoxib”.

Question: Which “inhibition (%) ratios of COX-2 to COX-1” value does the source give for `CS(=O)(=O)c1ccc(-c2ssc(=S)c2-c2ccccc2C(F)(F)F)cc1` [Example 44, 5-(4-methanesulfonylphenyl)-4-(2-trifluoromethylphenyl)-[1,2]dithiol-3-thione] here?
Answer: The value was “significantly higher than that in the reference, Valdecoxib”.

Question: For `CS(=O)(=O)c1ccc(-c2ssc(=S)c2-c2ccc(Cl)cc2)cc1` [Example 45, 4-(4-chlorophenyl)-5-(4-methanesulfonylphenyl)-[1,2]dithiol-3-thione], which “inhibition (%) ratios of COX-2 to COX-1” value is on record?
Answer: The value was “significantly higher than that in the reference, Valdecoxib”.

Question: With `CS(=O)(=O)c1ccc(-c2ssc(=S)c2-c2ccc(Cl)c(Cl)c2)cc1` [Example 46, 4-(3,4-dichlorophenyl)-5-(4-methanesulfonylphenyl)-[1,2]dithiol-3-thione] as the compound, how does the “inhibition (%) ratios of COX-2 to COX-1” value read?
Answer: The value was “significantly higher than that in the reference, Valdecoxib”.

Question: For `CS(=O)(=O)c1ccc(-c2ssc(=S)c2-c2ccncc2)cc1` [Example 47, 5-(4-methanesulfonylphenyl)-4-(pyridine-4-yl)-[1,2]dithiol-3-thione], which “inhibition (%) ratios of COX-2 to COX-1” value is on record?
Answer: Its value is “significantly higher than that in the reference, Valdecoxib”.

Question: For `CS(=O)(=O)c1ccc(-c2ssc(=S)c2-c2cccnc2)cc1` [Example 48, 5-(4-methanesulfonylphenyl)-4-(pyridine-3-yl)-[1,2]dithiol-3-thione], which “inhibition (%) ratios of COX-2 to COX-1” value is on record?
Answer: The value was “significantly higher than that in the reference, Valdecoxib”.

Question: How did the “inhibition (%) ratios of COX-2 to COX-1” value turn out when `CS(=O)(=O)c1ccc(-c2ssc(=S)c2-c2ccccn2)cc1` [Example 49, 5-(4-methanesulfonylphenyl)-4-(pyridine-2-yl)-[1,2]dithiol-3-thione] was run?
Answer: The value was “significantly higher than that in the reference, Valdecoxib”.

Question: Which “inhibition (%) ratios of COX-2 to COX-1” value does the source give for `COc1ccc(OC)c(-c2c(-c3ccc(S(C)(=O)=O)cc3)ssc2=S)c1` [Example 51, 4-(2,5-dimethoxyphenyl)-5-(4-methanesulfonylphenyl)-[1,2]dithiol-3-thione] here?
Answer: The value was “significantly higher than that in the reference, Valdecoxib”.

Question: For `Cc1cc(C)cc(-c2c(-c3ccc(S(C)(=O)=O)cc3)ssc2=S)c1` [Example 52, 4-(3,5-dimethylphenyl)-5-(4-methanesulfonylphenyl)-[1,2]dithiol-3-thione], which “inhibition (%) ratios of COX-2 to COX-1” value is on record?
Answer: Its value is “significantly higher than that in the reference, Valdecoxib”.

Question: Which “inhibition (%) ratios of COX-2 to COX-1” value does the source give for `COc1cccc(-c2c(-c3ccc(S(C)(=O)=O)cc3)ssc2=S)c1` [Example 53, 5-(4-methanesulfonylphenyl)-4-(3-methoxyphenyl)-[1,2]dithiol-3-thione] here?
Answer: The value was “significantly higher than that in the reference, Valdecoxib”.

Question: How did the “inhibition (%) ratios of COX-2 to COX-1” value turn out when `CS(=O)(=O)c1ccc(-c2ssc(=S)c2-c2ccccc2[N+](=O)[O-])cc1` [Example 54, 5-(4-methanesulfonylphenyl)-4-(2-nitrophenyl)-[1,2]dithiol-3-thione] was run?
Answer: The value was “significantly higher than that in the reference, Valdecoxib”.

Question: Which “inhibition (%) ratios of COX-2 to COX-1” value does the source give for `CS(=O)(=O)c1ccc(-c2ssc(=S)c2-c2cccc(C(F)(F)F)c2)cc1` [Example 55, 5-(4-methanesulfonylphenyl)-4-(3-trifluoromethylphenyl)-[1,2]dithiol-3-thione] here?
Answer: Its value is “significantly higher than that in the reference, Valdecoxib”.

Question: With `CS(=O)(=O)c1ccc(-c2ssc(=S)c2-c2ccccc2Cl)cc1` [Example 57, 4-(2-chlorophenyl)-5-(4-methanesulfonylphenyl)-[1,2]dithiol-3-thione] as the compound, how does the “inhibition (%) ratios of COX-2 to COX-1” value read?
Answer: Its value is “significantly higher than that in the reference, Valdecoxib”.

Question: `CS(=O)(=O)c1ccc(-c2ssc(=S)c2-c2ccc(Cl)cc2Cl)cc1` [Example 58, 4-(2,4-dichlorophenyl)-5-(4-methanesulfonylphenyl)-[1,2]dithiol-3-thione] was tested. Which “inhibition (%) ratios of COX-2 to COX-1” value did it give?
Answer: The value was “significantly higher than that in the reference, Valdecoxib”.

Question: With `CS(=O)(=O)c1ccc(-c2ssc(=S)c2-c2ccc(F)cc2Cl)cc1` [Example 59, 4-(2-chloro-4-fluorophenyl)-5-(4-methanesulfonylphenyl)-[1,2]dithiol-3-thione] as the compound, how does the “inhibition (%) ratios of COX-2 to COX-1” value read?
Answer: Its value is “significantly higher than that in the reference, Valdecoxib”.

Question: Which “inhibition (%) ratios of COX-2 to COX-1” value does the source give for `COc1ccc(-c2c(-c3ccc(S(C)(=O)=O)cc3)ssc2=S)cc1OC` [Example 60, 4-(3,4-dimethoxyphenyl)-5-(4-methanesulfonylphenyl)-[1,2]dithiol-3-thione] here?
Answer: The value was “significantly higher than that in the reference, Valdecoxib”.

Question: Which “inhibition (%) ratios of COX-2 to COX-1” value does the source give for `CS(=O)(=O)c1ccc(-c2ssc(=S)c2-c2ccccc2Br)cc1` [Example 61, 4-(2-bromophenyl)-5-(4-methanesulfonylphenyl)-[1,2]dithiol-3-thione] here?
Answer: The value was “significantly higher than that in the reference, Valdecoxib”.

Question: Which “inhibition (%) ratios of COX-2 to COX-1” value does the source give for `CS(=O)(=O)c1ccc(-c2ssc(=S)c2-c2ccccc2F)cc1` [Example 62, 4-(2-fluorophenyl)-5-(4-methanesulfonylphenyl)-[1,2]dithiol-3-thione] here?
Answer: The value was “significantly higher than that in the reference, Valdecoxib”.

Question: For `CS(=O)(=O)c1ccc(-c2ssc(=S)c2-c2ccc(F)cc2F)cc1` [Example 63, 4-(2,4-difluorophenyl)-5-(4-methanesulfonylphenyl)-[1,2]dithiol-3-thione], which “inhibition (%) ratios of COX-2 to COX-1” value is on record?
Answer: The value was “significantly higher than that in the reference, Valdecoxib”.

Question: `CS(=O)(=O)c1ccc(-c2ssc(=S)c2-c2ccc(F)c(F)c2)cc1` [Example 64, 4-(3,4-difluorophenyl)-5-(4-methanesulfonylphenyl)-[1,2]dithiol-3-thione] was tested. Which “inhibition (%) ratios of COX-2 to COX-1” value did it give?
Answer: Its value is “significantly higher than that in the reference, Valdecoxib”.

Question: `CS(=O)(=O)c1ccc(-c2ssc(=S)c2-c2ccc3ccccc3c2)cc1` [Example 65, 5-(4-methanesulfonylphenyl)-4-(naphthalene-2-yl)-[1,2]dithiol-3-thione] was tested. Which “inhibition (%) ratios of COX-2 to COX-1” value did it give?
Answer: The value was “significantly higher than that in the reference, Valdecoxib”.

Question: For `CC(C)Oc1ccc(-c2c(-c3ccc(S(C)(=O)=O)cc3)ssc2=S)cc1` [Example 67, 4-(4-isopropoxylphenyl)-5-(4-methanesulfonylphenyl)-[1,2]dithiol-3-thione], which “inhibition (%) ratios of COX-2 to COX-1” value is on record?
Answer: Its value is “significantly higher than that in the reference, Valdecoxib”.

Question: How did the “inhibition (%) ratios of COX-2 to COX-1” value turn out when `CCCOc1ccc(-c2c(-c3ccc(S(C)(=O)=O)cc3)ssc2=S)cc1` [Example 68, 5-(4-methanesulfonylphenyl)-4-(4-propoxyphenyl)-[1,2]dithiol-3-thione] was run?
Answer: Its value is “significantly higher than that in the reference, Valdecoxib”.

Question: `CC(=O)Oc1ccc(-c2c(-c3ccc(S(C)(=O)=O)cc3)ssc2=S)cc1` [Example 69, Acetic acid 4-[5-(4-methanesulfonylphenyl)-3-thioxo-3H-[1,2]dithiol-4-yl]phenyl ester] was tested. Which “inhibition (%) ratios of COX-2 to COX-1” value did it give?
Answer: The value was “significantly higher than that in the reference, Valdecoxib”.

Question: With `CCOc1ccc(-c2c(-c3ccc(S(C)(=O)=O)cc3Cl)ssc2=S)cc1` [Example 70, 5-(2-chloro-4-methanesulfonylphenyl)-4-(4-ethoxyphenyl)-[1,2]dithiol-3-thione] as the compound, how does the “inhibition (%) ratios of COX-2 to COX-1” value read?
Answer: The value was “significantly higher than that in the reference, Valdecoxib”.

Question: How did the “inhibition (%) ratios of COX-2 to COX-1” value turn out when `CS(=O)(=O)c1ccc(-c2ssc(=S)c2-c2ccc(Br)cc2)c(Cl)c1` [Example 72, 4-(4-bromophenyl)-5-(2-chloro-4-methanesulfonylphenyl)-[1,2]dithiol-3-thione] was run?
Answer: Its value is “significantly higher than that in the reference, Valdecoxib”.

Question: With `COc1ccc(-c2c(-c3ccc(S(C)(=O)=O)cc3Cl)ssc2=S)cc1` [Example 73, 5-(2-chloro-4-methanesulfonylphenyl)-4-(4-methoxyphenyl)-[1,2]dithiol-3-thione] as the compound, how does the “inhibition (%) ratios of COX-2 to COX-1” value read?
Answer: Its value is “significantly higher than that in the reference, Valdecoxib”.

From patent US7781592B2, “Thione derivative, method for the preparation thereof, and pharmaceutical composition containing the same” (CJ Cheiljedang Corporation, priority 2003, dated 2010)
